Assay results published in the supplement of paper PMC10849652.
Some of the results follow.

By UniProt entry, the sequences of proteins in these tests, tags left out. Where a name states a change or a piece, a line headed by the entry shows the natural chain unless it says otherwise.
UniProt Q658Y4: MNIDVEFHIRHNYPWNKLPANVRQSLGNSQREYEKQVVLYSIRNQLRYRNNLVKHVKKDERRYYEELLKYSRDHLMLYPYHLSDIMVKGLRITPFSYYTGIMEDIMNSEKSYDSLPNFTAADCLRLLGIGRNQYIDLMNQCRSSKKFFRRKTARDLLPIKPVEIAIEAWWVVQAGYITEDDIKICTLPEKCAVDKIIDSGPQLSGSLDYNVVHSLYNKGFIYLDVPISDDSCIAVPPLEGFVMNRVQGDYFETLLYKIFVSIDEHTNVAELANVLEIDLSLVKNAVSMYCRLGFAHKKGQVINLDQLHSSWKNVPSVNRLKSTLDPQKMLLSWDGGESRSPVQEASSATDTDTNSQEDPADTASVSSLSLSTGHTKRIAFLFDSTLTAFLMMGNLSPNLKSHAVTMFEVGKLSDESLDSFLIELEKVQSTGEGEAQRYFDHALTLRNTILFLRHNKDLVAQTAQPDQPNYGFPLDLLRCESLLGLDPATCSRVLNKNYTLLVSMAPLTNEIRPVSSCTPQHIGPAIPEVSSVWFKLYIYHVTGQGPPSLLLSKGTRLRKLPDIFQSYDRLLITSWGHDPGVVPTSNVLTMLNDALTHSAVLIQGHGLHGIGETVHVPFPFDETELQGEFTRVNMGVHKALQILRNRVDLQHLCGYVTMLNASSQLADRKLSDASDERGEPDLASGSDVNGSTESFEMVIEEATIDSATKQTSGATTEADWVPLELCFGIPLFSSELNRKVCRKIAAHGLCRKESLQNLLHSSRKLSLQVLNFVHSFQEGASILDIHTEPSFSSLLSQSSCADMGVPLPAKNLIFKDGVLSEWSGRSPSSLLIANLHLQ
UniProt P0C5J1: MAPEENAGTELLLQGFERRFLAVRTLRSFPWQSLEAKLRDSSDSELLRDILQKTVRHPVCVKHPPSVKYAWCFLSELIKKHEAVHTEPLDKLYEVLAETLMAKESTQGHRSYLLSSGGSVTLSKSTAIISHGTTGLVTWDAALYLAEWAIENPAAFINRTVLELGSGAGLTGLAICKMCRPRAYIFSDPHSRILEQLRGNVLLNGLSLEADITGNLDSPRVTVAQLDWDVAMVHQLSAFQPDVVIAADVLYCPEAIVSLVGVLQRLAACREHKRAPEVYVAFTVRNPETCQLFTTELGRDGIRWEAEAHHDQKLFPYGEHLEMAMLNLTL
UniProt Q8N3Y1: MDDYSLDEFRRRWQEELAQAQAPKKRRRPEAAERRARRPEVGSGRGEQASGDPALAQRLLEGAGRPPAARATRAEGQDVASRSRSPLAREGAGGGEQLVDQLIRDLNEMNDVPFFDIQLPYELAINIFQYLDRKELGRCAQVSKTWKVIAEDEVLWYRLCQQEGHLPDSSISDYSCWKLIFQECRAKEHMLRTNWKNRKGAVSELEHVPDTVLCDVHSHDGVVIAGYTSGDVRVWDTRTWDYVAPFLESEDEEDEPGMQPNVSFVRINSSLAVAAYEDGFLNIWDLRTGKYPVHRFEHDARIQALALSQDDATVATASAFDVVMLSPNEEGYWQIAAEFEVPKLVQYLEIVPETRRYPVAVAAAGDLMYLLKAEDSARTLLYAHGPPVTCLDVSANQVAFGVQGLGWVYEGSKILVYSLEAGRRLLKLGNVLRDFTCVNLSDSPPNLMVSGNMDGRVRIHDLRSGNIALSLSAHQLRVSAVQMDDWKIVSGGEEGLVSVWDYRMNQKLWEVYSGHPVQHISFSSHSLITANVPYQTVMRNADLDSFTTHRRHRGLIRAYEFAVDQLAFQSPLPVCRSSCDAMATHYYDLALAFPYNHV
UniProt Q92562: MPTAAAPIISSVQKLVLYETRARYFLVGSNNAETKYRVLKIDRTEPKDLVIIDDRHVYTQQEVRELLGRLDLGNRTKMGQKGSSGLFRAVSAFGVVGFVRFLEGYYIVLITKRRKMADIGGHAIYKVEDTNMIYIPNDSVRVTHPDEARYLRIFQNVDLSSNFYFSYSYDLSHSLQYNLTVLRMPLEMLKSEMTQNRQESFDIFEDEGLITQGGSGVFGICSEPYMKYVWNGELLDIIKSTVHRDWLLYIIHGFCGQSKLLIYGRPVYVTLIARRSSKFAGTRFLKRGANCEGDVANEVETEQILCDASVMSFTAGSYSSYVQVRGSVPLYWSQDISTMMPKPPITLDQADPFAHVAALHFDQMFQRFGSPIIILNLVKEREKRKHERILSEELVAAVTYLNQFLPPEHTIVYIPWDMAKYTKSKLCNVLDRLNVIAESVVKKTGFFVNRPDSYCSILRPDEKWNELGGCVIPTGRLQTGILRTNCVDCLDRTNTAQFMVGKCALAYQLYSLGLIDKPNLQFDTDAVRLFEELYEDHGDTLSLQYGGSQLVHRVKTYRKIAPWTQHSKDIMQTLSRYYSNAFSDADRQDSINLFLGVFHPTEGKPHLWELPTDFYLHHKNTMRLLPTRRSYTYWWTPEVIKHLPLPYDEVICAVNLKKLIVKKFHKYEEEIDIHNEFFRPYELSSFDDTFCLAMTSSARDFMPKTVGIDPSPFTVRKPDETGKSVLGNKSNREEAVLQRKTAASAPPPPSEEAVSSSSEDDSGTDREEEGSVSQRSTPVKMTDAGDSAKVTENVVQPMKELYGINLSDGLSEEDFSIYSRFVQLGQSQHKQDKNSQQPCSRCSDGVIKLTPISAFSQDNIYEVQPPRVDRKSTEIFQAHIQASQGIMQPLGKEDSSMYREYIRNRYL
UniProt Q8N3X1: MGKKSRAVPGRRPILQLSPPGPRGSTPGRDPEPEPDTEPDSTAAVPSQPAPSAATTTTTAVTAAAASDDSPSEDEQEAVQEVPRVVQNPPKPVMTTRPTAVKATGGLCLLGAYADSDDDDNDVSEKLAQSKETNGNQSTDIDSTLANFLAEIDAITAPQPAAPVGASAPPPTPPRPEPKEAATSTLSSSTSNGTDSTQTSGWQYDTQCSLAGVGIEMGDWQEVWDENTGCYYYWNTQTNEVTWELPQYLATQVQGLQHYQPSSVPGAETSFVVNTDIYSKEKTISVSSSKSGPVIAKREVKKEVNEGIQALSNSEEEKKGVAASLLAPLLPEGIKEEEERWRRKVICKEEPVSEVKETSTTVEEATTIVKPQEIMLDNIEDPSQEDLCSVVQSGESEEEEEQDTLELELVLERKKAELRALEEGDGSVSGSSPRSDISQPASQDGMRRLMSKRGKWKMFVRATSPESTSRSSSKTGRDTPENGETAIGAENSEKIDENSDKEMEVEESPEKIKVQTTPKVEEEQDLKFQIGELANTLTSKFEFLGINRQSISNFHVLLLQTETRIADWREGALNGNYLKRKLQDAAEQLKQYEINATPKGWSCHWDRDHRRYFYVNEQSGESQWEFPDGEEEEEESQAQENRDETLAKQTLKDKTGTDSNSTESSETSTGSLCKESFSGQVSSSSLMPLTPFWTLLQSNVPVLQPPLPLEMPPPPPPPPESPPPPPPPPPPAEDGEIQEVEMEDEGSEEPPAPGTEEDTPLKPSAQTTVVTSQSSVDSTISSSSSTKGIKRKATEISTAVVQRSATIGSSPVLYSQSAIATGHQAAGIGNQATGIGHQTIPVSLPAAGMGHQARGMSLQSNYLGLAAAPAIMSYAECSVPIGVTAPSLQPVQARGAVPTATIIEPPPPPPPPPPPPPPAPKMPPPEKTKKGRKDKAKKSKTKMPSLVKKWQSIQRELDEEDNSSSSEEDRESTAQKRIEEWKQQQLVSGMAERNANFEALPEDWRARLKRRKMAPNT
UniProt Q8NEZ5: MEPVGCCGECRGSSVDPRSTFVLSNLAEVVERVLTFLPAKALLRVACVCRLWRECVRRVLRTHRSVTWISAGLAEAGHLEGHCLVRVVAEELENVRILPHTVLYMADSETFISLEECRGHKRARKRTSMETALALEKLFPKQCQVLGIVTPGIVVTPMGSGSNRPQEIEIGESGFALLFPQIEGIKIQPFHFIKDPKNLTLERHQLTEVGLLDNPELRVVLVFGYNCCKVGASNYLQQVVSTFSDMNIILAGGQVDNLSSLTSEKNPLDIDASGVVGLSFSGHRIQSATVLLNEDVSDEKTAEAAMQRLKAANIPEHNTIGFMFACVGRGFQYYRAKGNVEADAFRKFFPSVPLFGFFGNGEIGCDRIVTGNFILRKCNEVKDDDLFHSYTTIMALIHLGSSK
UniProt P22087: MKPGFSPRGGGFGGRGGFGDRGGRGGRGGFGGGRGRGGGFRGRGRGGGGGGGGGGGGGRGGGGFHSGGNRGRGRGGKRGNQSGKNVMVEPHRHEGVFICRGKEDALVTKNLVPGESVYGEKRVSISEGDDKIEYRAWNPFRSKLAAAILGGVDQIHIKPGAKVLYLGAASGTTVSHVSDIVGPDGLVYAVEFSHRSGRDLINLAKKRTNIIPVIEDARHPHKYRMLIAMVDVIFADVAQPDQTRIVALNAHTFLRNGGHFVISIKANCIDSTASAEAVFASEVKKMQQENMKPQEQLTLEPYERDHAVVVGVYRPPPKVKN
UniProt Q8TB52: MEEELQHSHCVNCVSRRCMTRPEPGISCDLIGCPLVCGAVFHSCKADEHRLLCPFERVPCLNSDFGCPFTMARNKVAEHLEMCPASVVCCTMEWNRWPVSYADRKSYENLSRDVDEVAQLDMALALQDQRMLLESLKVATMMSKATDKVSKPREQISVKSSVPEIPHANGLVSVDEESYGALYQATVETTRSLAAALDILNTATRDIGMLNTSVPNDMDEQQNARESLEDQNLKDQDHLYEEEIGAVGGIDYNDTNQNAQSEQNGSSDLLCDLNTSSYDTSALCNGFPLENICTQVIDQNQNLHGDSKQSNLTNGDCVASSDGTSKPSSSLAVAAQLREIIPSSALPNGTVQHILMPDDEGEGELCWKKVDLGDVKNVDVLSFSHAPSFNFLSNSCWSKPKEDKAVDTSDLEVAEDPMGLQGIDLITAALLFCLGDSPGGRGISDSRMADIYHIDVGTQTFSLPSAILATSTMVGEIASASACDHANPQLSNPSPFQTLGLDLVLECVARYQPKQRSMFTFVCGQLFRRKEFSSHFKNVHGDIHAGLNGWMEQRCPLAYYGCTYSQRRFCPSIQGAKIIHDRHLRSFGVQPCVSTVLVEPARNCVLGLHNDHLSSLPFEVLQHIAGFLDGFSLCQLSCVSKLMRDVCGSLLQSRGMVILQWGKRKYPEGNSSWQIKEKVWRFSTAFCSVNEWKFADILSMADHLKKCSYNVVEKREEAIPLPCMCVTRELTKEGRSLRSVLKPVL
UniProt Q7L8L6: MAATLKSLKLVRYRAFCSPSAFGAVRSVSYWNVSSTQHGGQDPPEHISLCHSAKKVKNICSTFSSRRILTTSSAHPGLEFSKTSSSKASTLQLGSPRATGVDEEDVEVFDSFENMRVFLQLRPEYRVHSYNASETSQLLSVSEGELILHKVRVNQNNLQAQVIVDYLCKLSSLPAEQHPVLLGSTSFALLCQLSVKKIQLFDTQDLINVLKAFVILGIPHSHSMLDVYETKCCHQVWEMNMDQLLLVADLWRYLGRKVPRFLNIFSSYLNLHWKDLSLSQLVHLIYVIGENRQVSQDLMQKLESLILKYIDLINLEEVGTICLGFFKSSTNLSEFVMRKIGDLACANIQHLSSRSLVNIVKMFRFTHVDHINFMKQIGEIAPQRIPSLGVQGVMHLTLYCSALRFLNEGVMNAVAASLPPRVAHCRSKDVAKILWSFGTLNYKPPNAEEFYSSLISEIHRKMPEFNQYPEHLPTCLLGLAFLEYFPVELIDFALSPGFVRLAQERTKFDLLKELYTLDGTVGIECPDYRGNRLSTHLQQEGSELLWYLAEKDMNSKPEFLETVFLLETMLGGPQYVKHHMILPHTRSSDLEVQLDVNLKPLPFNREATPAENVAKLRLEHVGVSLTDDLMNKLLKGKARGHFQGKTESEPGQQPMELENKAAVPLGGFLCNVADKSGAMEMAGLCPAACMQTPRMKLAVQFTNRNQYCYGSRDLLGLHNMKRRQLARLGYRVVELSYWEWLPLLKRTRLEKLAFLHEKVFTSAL
UniProt Q9UHY8: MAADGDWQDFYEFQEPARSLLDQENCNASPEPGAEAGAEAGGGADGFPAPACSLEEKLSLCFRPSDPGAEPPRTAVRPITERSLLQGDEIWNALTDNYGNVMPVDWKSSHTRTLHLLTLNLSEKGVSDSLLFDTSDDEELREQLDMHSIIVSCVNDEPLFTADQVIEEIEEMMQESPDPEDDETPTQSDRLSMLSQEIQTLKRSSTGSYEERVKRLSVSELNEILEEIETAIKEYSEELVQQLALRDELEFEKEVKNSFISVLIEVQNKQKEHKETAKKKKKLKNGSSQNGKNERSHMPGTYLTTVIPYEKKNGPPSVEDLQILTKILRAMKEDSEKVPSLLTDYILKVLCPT

What was measured:
Test in all cases: log2 fold change, soluble protein after heating vs DMSO (PISA); higher = thermal stabilisation; K562 lysate, 10 uM; active = over 0.2 and 3.5 SD of the protein, either way, in both replicates (recomputed)
[1] = compound: C1=CC=C(C=C1)[C@H](COC2=CC3=C(C=C2)NC(=O)N3)NC(=O)C4=CC=CN(C4=O)CC5=CC(=C(C=C5)F)F
Outline: (§1)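 Log-two fold change in thermal stability relative to solvent controls is reported from duplicates. For each sample, crude K562 extract from dounce-homogenised pellets in PBS pH 7.4 with 1 mM MgCl2, at 1 mg/mL protein, was treated with 10 μM compound for 30 min. Aliquots heated for 3 min across 48°C-58°C were pooled, brought to 0.5% NP-40 at 4°C and cleared at 21,000xg for 90 min. The supernatant was quantified by TMTpro 16plex LC-MS/MS with channel sums equalised.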

[2] = compound: CC1=C(SC2=C1C(=N[C@H](C3=NN=C(N32)C)CC(=O)N)C4=CC=C(C=C4)Cl)C
Outline: as §1

[3] = compound: CC1=C2C(=CC=C1)N=C(N(C2=O)C3=CC=CC=C3C)CN4C=NC5=C(N=CN=C54)N
Outline: as §1

[4] = compound: Cc1sc2c(c1C)C(c1ccc(Cl)cc1)=N[C@@H](CC(=O)OC(C)(C)C)c1nnc(C)n1-2
Outline: as §1

[5] = compound: c1ccc([C@@H]2C[C@H]2NC2CCNCC2)cc1
Outline: as §1

Measured: log2 fold change

FAM91A1 (UniProt Q658Y4)
inactive: [1] 0.014 | [2] -0.011 | [3] -0.025 | [4] -0.005 | [5] 0.042

FAM86B2 (UniProt P0C5J1)
inactive: [1] -0.047 | [2] 0.011 | [3] -0.083

FBXW8 (UniProt Q8N3Y1)
inactive: [1] 0.105 | [2] -0.036 | [3] 0.062

FIG4 (UniProt Q92562)
inactive: [1] -0.107 | [2] -0.108 | [3] 0.037 | [4] 0.039 | [5] -0.037

FNBP4 isoform 2 (UniProt Q8N3X1)
inactive: [1] 0.01 | [2] -0.015 | [3] 0.006 | [4] -0.016 | [5] -0.003

Quoted from the listing (2 entries):
FAM91A1 (UniProt Q658Y4)
inactive: [1] 0.014 | [2] -0.011 | [3] -0.025 | [4] -0.005 | [5] 0.042

FAM86B2 (UniProt P0C5J1)
inactive: [1] -0.047 | [2] 0.011 | [3] -0.083

Remaining list, next part:

FBXO22 (UniProt Q8NEZ5)
inactive: [1] -0.007 | [2] -0.004 | [3] 0.03 | [4] 0.02 | [5] 0.083

FBL (UniProt P22087)
inactive: [1] 0.034 | [2] 0.002 | [3] -0.011 | [4] 0.003 | [5] -0.012

FBXO30 (UniProt Q8TB52)
inactive: [1] -0.034 | [2] 0.011 | [3] -0.041 | [4] 0.036 | [5] 0.12

FASTKD5 (UniProt Q7L8L6)
inactive: [1] -0.168 | [2] -0.056 | [3] -0.024 | [4] -0.002 | [5] 0.133

FEZ2 isoform 2 (UniProt Q9UHY8)
inactive: [1] 0.042 | [2] 0.023 | [3] -0.036 | [4] -0.013 | [5] 0.116
